Experimental data reported in patent publication US20220047532A1, “AMPA RECEPTOR ANTAGONISTS SPECIFIC FOR CALCIUM PERMEABLE AMPA RECEPTORS AND METHODS OF TREATMENT THEREWITH” (priority 2018, published 2022).
Read-outs that look alike come from different tables or passages of the source. At least one compound was matched to its structure with a doubt left.

Columns and labels:
[1] = system: MeCP2 S421 phosphorylation; experiment: KCl-induced MeCP2 S421 phosphorylation, immunoblot, hippocampal cultures; assay type: cell-based, rat; settings: H; in the presence of NASPM and D-APV; p=0.8012
Procedure: (§1) Nuclei were isolated as previously described (81). […] Blots were incubated with the following primary antibodies: MeCP2 (S421) (1:1000) and total-MeCP2 (1:1000, kind gifts from Dr. Michael Greenberg, Harvard Medical School), phospho-CaMKII (T286) (1:250, Cell Signaling), pan-CaMKII (1:250, Cell Signaling), ([…] (1:5000, Sigma), and lamin A/C (1:1000, Cell Signaling).

[2] = system: MeCP2 S421 phosphorylation; experiment: In vivo hypoxic seizure (HS)-induced MeCP2 S421 phosphorylation in P10 rats; set-up: species or system rat
Procedure: as §1

[3] = system: CaMKII T286 phosphorylation; assay type: cell-based; settings: nimodipine added to D-APV and NASPM
Procedure: as §1

[4] = system: MeCP2 S421 phosphorylation; experiment: KCl-induced MeCP2 S421 phosphorylation, immunoblot, cortical cultures; assay type: cell-based, rat; settings: Ctx; in the presence of NASPM and D-APV; p=0.4352
Procedure: as §1

[5] = system: MeCP2 S421 phosphorylation; experiment: KA-induced MeCP2 S421 phosphorylation, immunoblot, cortical E18+10DIV cultures; assay type: cell-based, rat; settings: cortex, nimodipine added to D-APV and NASPM, p=0.973
Procedure: as §1

[6] = system: MeCP2 S421 phosphorylation; experiment: KA-induced MeCP2 S421 phosphorylation, immunoblot, hippocampal E18+10DIV cultures; assay type: cell-based, rat; settings: hippocampus, nimodipine added to D-APV and NASPM, p=0.790
Procedure: as §1

COCCOC(=O)C1=C(C)NC(C)=C(C(=O)OC(C)C)C1c1cccc([N+](=O)[O-])c1 (centres unmarked) [nimodipine]
Further reduction in KCl-induced MeCP2 phosphorylation over NASPM and D-APV [1]: no change was found
Baseline MeCP2 phosphorylation in control rats ([2]; control rats without HS): did not affect
Reduction of post-HS MeCP2 phosphorylation ([2]; nimodipine 5 mg/kg i.p.): but not
Further reduction of CaMKII T286A phosphorylation over D-APV and NASPM ([3]; cortex, p=0.7365): did not further reduce
Further reduction of CaMKII T286A phosphorylation over D-APV and NASPM ([3]; hippocampus, p=0.9290): did not further reduce
Further reduction in KCl-induced MeCP2 phosphorylation over NASPM and D-APV [4]: no change was found
Additional reduction of MeCP2 S421 phosphorylation over D-APV and NASPM alone [5]: did not add any additional reduction
Additional reduction of MeCP2 S421 phosphorylation over D-APV and NASPM alone [6]: did not add any additional reduction
